Reference: PubChem BioAssay AID504834 (National Center for Advancing Translational Sciences (NCATS), 2011)
The campaign covered roughly 320,000 compounds. About 22,000 (6.9%) were called active. Inconclusive results, whose numbers are uncertain, are shown with a selection of clear calls. Calls follow the shape of the dose curve; as a rule, active = well fitted inhibition curve with a large enough effect; inconclusive = small, poorly fitted or top-dose-only effect, or another doubt; inactive = no such curve, though single readings can be large or run the other way. Potencies of inconclusive entries are doubtful fits and often do not repeat.

Test: Primary qHTS for delayed death inhibitors of the malarial parasite plastid, 96 hour incubation
Conditions: P. falciparum luciferase reporter growth; series mostly up to 28.7 µM
Procedure, shortened: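 Parasite growth measured via integrated firefly luciferase reporter in P. falciparum. Infected erythrocytes at 2% hematocrit, 0.05% parasitemia final were treated 96 hours at 37 C under 5% CO2, and luminescence was read.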
% is scaled to controls: 0 for no effect and ±100 for the full control effect; potency is read from the fitted curve at half-maximal effect.

SMILES	Potency	activity change, negative = inhibition
CC1(C)C(C=C(Cl)Cl)C1C(=O)Nc1ccc(S(=O)(=O)Nc2ncccn2)cc1 (centres undefined)	inconclusive: 18.5 µM [inhibitor, single point]	
Cc1c(OCC(=O)NCc2cccnc2)ccc2c3c(c(=O)oc12)CCC3	inactive	
Cc1ccc(NC(=O)CSc2nnc(C3CC3)n2CC2CCCO2)c(C)c1 (centres undefined)	inactive	
O=C(COC(=O)c1nc(Cl)ccc1Cl)Nc1ncc(Cl)cc1Cl	inactive	
CCOc1cccc(-c2c(C(=O)N/N=C/c3ccncc3)nnn2-c2nonc2N)c1	inconclusive: 18.5 µM [inhibitor, single point]	
CN(CCCC1CCCC1)C(=O)c1cc(COc2ccc(F)c(F)c2)on1	inconclusive: 11.7 µM [inhibitor, partial curve, poor fit]	
COc1ccc(-c2nc(SC(C)C(=O)NC3CC3)n[nH]2)cc1 (centres undefined)	inconclusive: 11.7 µM [inhibitor, partial curve, poor fit]	
CC(=O)CCC(=O)OCC(=O)Nc1ccc(SC(F)F)cc1	inactive	
Cc1cccc(NC(=O)c2nc[nH]c2C(=O)N[C@@H](C)C(=O)OC(C)(C)C)c1	inconclusive: 18.5 µM [inhibitor, single point]	
COc1cccc(CN(C)C(=O)c2ccc(NS(=O)(=O)c3ccc4[nH]c(=O)[nH]c4c3)cc2)c1OC	inconclusive: 11.7 µM [inhibitor, partial curve, poor fit]	
CCN(CC)S(=O)(=O)c1ccc(Br)c(OC)c1		inactive: 10.5% [at 5.75 µM]
CCC(=O)Nc1ccccc1C(=O)OC(c1ccccc1)c1ccccc1	inconclusive: 10.4 µM [inhibitor, partial curve, poor fit]	
N#Cc1c(-c2cccs2)nc(SCc2ccc(Cl)cc2)[nH]c1=O	inconclusive: 0.928 µM [inhibitor, partial curve, poor fit]	
O=S(=O)(NCc1ccco1)c1ccc(S(=O)(=O)N2CCCC2)cc1	inconclusive: 10.4 µM [inhibitor, single point]	
O=C(Nc1nc2ccccc2[nH]1)c1ccc(Cl)c([N+](=O)[O-])c1	inactive	
CCNC(=O)Oc1ccc[nH]c1=O	inconclusive: 4.15 µM [inhibitor, partial curve, poor fit]	
O=c1oc2cc(S(=O)(=O)NCCCO)ccc2c2ccc(S(=O)(=O)NCCCO)cc12	inactive	
CCN(CC)CCCNC(=O)CNC(=O)c1nn(-c2ccc(OC)cc2)c(=O)c2ccccc12	active: 9.28 µM	
Cc1ccc(-c2cc(C(=O)NCCCn3ccnc3)c3cc(Br)ccc3n2)o1	inconclusive: 1.04 µM [inhibitor, partial curve, poor fit]	
O=C(CCNS(=O)(=O)c1ccccc1C(F)(F)F)N1CCN(S(=O)(=O)c2cccc(Cl)c2)CC1	inconclusive: 0.117 µM [inhibitor, partial curve, poor fit]	
COc1ccc(-c2nc3ccccc3c(C(=O)Nc3ccc(S(=O)(=O)Nc4cc(C)on4)cc3)c2C)cc1	inconclusive: 18.5 µM [inhibitor, single point]	
Cc1cc2c(c(/C=C/C(=O)c3ccccc3)c1)OC1(C=C2)Oc2ccccc2C(=O)N1C (centres undefined)	inconclusive: 0.0828 µM [inhibitor, full curve, poor fit]	
CCCc1nnc(NC(=O)CCC(=O)N2CCN(CCOc3ccc(C)cc3)CC2)s1	inconclusive: 10.4 µM [inhibitor, single point]	

Looked up above.
Value for Cc1cc2c(c(/C=C/C(=O)c3ccccc3)c1)OC1(C=C2)Oc2ccccc2C(=O)N1C (centres undefined) under Potency: inconclusive: 0.0828 µM [inhibitor, full curve, poor fit]
Value for N#Cc1c(-c2cccs2)nc(SCc2ccc(Cl)cc2)[nH]c1=O under Potency: inconclusive: 0.928 µM [inhibitor, partial curve, poor fit]
Value for O=C(CCNS(=O)(=O)c1ccccc1C(F)(F)F)N1CCN(S(=O)(=O)c2cccc(Cl)c2)CC1 under Potency: inconclusive: 0.117 µM [inhibitor, partial curve, poor fit]
Value for CCN(CC)CCCNC(=O)CNC(=O)c1nn(-c2ccc(OC)cc2)c(=O)c2ccccc12 under Potency: active: 9.28 µM

Remaining list, next part

SMILES	Potency	activity change, negative = inhibition
COc1cccc(NC(=O)c2sc3nc(N4CCOCC4)c4c(c3c2N)CCCC4)c1	inconclusive: 5.86 µM [inhibitor, partial curve]	
COc1ccc(/C=C2\CCC(C3CCCC3)C2=O)c(OC)c1OC (centres undefined)	inconclusive: 4.15 µM [inhibitor, single point]	
O=C1c2ccncc2C(=O)N1c1cccc(Cl)c1	inconclusive: 18.5 µM [inhibitor, single point]	
Cc1ccc(OCC(O)CNCc2ccccc2)cc1C (centres undefined)	inconclusive: 20.8 µM [inhibitor, partial curve, poor fit]	
C/C(=N\N1CCN(Cc2ccccc2Cl)CC1)c1ccc([N+](=O)[O-])cc1	inactive	
COc1ccc2c(c1)CCc1c-2nc2ccccc2c1N1CCOCC1	inconclusive: 3.7 µM [inhibitor, partial curve, poor fit]	
CCCOC(=O)C1[C@H]2C(=O)N(CCCOC)C[C@]23C=C[C@H]1O3 (some centres undefined)	inactive	
Cn1c(N)c(C(=O)CSc2nnc(Cc3cccs3)n2C2CC2)c(=O)n(C)c1=O	active: 3.29 µM	
CCOc1ccccc1/C=N/Nc1cc(C)nc2ccc(C)cc12	inconclusive: 13.1 µM [inhibitor, single point]	
COc1cccc(C(=O)NC2CC3CCCC(C2)N3Cc2ccc(C)cc2)c1 (centres undefined)	inconclusive: 10.4 µM [inhibitor, single point]	
CCOC(=O)c1nn(-c2ccc(OCC)cc2)c2nc(-c3ccco3)c(C#N)c(=O)n12	inconclusive: 16.5 µM [inhibitor, single point]	
C=C1N2CCC(CC2)C1(O)c1ccc(C)c(C)c1 (centres undefined)	inconclusive: 18.5 µM [inhibitor, single point]	
Cc1ccc(C2N(c3ccccc3)C(=S)N3CCCN23)cc1 (centres undefined)	inconclusive: 7.38 µM [inhibitor, partial curve, poor fit]	
O=C(NCCCN1CCCC1=O)C1CCN(S(=O)(=O)c2c(Cl)cccc2Cl)CC1	inactive	
Cc1nc2ccc(NC(=O)c3cccc(S(=O)(=O)N4CC(C)OC(C)C4)c3)cc2s1 (centres undefined)	active: 8.28 µM	
Cc1nn(-c2ccccc2)c(C)c1NC(=O)COc1ccc2ccccc2c1	inconclusive: 0.415 µM [inhibitor, full curve, poor fit]	
CN(c1ccccc1)S(=O)(=O)c1cc(C(=O)N2CCN(c3ccccn3)CC2)ccc1Cl	inconclusive: 18.5 µM [inhibitor, single point]	
O=C(COc1ccc(Br)cc1Br)NC(=O)NC1CCCC1	inactive	
CC(C)CC(=O)N1CCN(Cc2ccccc2Cl)CC1	inactive	
CCC1(C)SC(N)=NN1C(C)=O (centres undefined)	inactive	
COc1ccc(C2CC(c3cccs3)=NN2C(=O)COC(=O)c2cc3ccccc3cc2O)cc1OC (centres undefined)	inactive	
CCOc1nc(-c2ccncc2)nc2ccccc12	inconclusive: 18.5 µM [inhibitor, single point]	
Cc1cc(C)cc(NS(=O)(=O)c2ccc3[nH]cc(C(=O)NCc4ccco4)c(=O)c3c2)c1	inactive	

SMILES	Potency	activity change, negative = inhibition
COc1ccc(C(=O)OCC(=O)Nc2c(C)cccc2C)cc1	inactive	
O=C(NC1CC1)c1cc(=O)c2ccccc2o1	inactive	
O=C(NC1C/C(=N/O)c2cc3c(cc21)OCO3)C(F)(F)F (centres undefined)	inactive	
O=C(Nc1ccccc1C(=O)NCc1ccccc1)C1=CSCCO1	inconclusive: 7.38 µM [inhibitor, partial curve]	
CCCCc1c(O)nc(SCC(=O)N2CCOCC2)n(-c2ccccc2C)c1=O	inconclusive: 4.15 µM [inhibitor, single point]	
O=C(Cn1nc(Cc2cccnc2)c2ccccc2c1=O)Nc1ccccc1F	inactive	
Cc1cc(C)n(CC(C)NC(=O)c2cc(COc3ccc(F)c(F)c3)on2)n1 (centres undefined)	inconclusive: 10.4 µM [inhibitor, single point]	
O=C(NCC1CCCN1S(=O)(=O)c1cccs1)c1cccc(F)c1 (centres undefined)	inconclusive: 9.28 µM [inhibitor, single point]	
Cc1ccc(Sc2cc(C(=O)NCCCN(C)C)c3ccccc3n2)cc1	inconclusive: 18.5 µM [inhibitor, single point]	
Cc1cc(NC(=O)c2cc(-c3ccccc3)on2)no1	inactive	
CCOC(=O)c1c(C)nc2c(c1-c1ccccc1)C(=O)CCC2	inconclusive: 0.0029 µM [inhibitor, full curve, poor fit]	
Cc1nc2ccc(C(=O)N(C)CC3CCCN(CCc4ccc(Cl)cc4)C3)cc2[nH]1 (centres undefined)	inconclusive: 14.7 µM [inhibitor, partial curve, poor fit]	
Cc1cc(NC(=O)CSc2nc(N)c(NC(=O)c3ccco3)c(=O)[nH]2)no1	inactive	
Cc1ccc(-c2cc(C(=O)Nc3cc(C)on3)c3ccccc3n2)c(C)c1	inconclusive: 18.5 µM [inhibitor, single point]	
O=C(N/N=C\c1cccnc1)c1ccc(Cl)cc1Cl	inconclusive: 18.5 µM [inhibitor, single point]	
CS(=O)(=O)N(CC(=O)NCCSCc1ccccc1)c1ccccc1F	inconclusive: 1.47 µM [inhibitor, full curve, poor fit]	
CCCCCC(=O)Cc1cc(O)cc2c1C(=O)Oc1cc(O)c(C(=O)O)c(CCCCC)c1O2	inconclusive: 9.28 µM [inhibitor, partial curve]	
CC(=O)c1ccc(-n2c(SCC(=O)c3c[nH]c4ccccc34)nc3ccccc3c2=O)cc1	inconclusive: 1.65 µM [inhibitor, partial curve, poor fit]	
CNc1c([N+](=O)[O-])cnn1-c1ccccn1	inactive	
CC1CN(c2ccnc3cc(Cl)ccc23)CC(C)O1 (centres undefined)	inconclusive: 9.28 µM [inhibitor, partial curve]	
CCN(CC)S(=O)(=O)c1ccc2c(c1)N(CC(=O)Nc1ccc(NC(C)=O)cc1)C(=O)CO2	inconclusive: 11.7 µM [inhibitor, partial curve]	
O=C(NCCS(=O)(=O)N1CCN(c2ccccc2F)CC1)c1ccc2c(c1)OCO2	inactive	
Cn1c(C2CCCCC2)nc2ccccc21	inconclusive: 4.15 µM [inhibitor, partial curve, poor fit]	
